Here are results for two substances from article PMC4947160.

Protein sequences, listed by entry. Tags and fused reporters are not part of them.
UniProt P46414: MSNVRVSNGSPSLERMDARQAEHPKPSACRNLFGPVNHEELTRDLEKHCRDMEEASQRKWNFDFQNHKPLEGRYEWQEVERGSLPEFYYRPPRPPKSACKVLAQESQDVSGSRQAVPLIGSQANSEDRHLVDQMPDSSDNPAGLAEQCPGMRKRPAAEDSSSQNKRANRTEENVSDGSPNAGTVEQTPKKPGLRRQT
UniProt P46527: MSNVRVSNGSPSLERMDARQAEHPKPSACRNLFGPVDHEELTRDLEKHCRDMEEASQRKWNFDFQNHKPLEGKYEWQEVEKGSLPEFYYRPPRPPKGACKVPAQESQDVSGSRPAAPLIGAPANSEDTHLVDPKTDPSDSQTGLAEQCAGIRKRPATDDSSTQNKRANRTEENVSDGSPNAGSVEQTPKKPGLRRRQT
UniProt Q9DBY1: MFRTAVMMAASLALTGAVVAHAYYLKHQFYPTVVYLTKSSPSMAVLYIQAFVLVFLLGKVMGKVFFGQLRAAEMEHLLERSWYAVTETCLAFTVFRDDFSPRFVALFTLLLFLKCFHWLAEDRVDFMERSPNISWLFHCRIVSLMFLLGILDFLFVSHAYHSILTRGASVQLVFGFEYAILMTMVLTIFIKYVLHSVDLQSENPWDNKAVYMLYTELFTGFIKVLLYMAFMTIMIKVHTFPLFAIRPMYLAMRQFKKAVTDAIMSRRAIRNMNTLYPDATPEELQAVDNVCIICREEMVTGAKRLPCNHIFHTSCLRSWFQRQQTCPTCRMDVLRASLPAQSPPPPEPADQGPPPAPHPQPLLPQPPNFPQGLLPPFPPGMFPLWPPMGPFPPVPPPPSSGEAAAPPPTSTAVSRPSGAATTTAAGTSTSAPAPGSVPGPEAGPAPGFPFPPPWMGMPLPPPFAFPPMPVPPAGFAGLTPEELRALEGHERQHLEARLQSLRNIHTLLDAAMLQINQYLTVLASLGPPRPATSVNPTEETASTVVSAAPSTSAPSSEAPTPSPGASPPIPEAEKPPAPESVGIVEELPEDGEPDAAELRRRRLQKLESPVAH
UniProt Q86TM6: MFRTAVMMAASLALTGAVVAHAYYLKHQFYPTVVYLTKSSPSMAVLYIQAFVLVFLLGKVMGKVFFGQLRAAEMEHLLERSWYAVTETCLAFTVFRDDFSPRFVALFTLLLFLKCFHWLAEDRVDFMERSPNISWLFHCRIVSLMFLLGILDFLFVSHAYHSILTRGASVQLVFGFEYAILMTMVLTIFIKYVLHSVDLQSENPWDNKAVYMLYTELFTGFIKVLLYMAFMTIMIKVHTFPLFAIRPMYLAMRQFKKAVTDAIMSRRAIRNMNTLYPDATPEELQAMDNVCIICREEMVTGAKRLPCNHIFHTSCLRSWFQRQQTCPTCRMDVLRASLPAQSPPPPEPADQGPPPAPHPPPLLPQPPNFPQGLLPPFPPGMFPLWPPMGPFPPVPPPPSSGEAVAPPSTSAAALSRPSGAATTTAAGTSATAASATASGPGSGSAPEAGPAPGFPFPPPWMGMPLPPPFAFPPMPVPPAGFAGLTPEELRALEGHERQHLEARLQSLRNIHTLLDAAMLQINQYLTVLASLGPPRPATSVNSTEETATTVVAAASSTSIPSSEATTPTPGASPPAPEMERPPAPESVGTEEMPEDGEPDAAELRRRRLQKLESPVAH

Test [1] has as its target p27^kip1 (endogenous, mouse CD4 T cells) (mouse (endogenous in primary CD4 T cells)) (UniProt P46414). Kind of test: co-IP; endogenous proteins in mouse primary CD4 T cells, naive or stimulated with anti-CD3 or anti-CD3 plus anti-CD28 (30 min or 24 h); lysis in RIPA buffer; immunoprecipitation with anti-p27, immunoblotting with anti-Hrd1; p27^kip1 KO T cells as control. For orientation: In western blotting, separated proteins are transferred to a membrane and probed.

Another test addresses Flag-p27 (UniProt P46527). Kind of test: co-IP; HEK293 cells transiently transfected with Myc-Hrd1 (or its CA mutant) and Flag-p27; lysis in RIPA buffer; immunoprecipitation with anti-Flag, immunoblotting with anti-Myc.

Results are given in words; binding and its absence hold for the method and conditions named. In cells and extracts the contact can be indirect. Some results given as binding are weak or reduced against the parent protein; the word gives no strength.

“Hrd1 (endogenous, mouse CD4 T cells) (from UniProt Q9DBY1 1-612) (enzyme)”: in test [1], the binding entry is reported as “binds”.

Turning to “Myc-tagged Hrd1 (from UniProt Q86TM6 1-617) (enzyme)”, in the test with Flag-p27, the binding result is given as “binds”.
